Laboratory results: PubChem BioAssay AID1259405 (NCATS, 2018)
Purpose: 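Mouse-designed siRNAs used to find CHO productivity engineering targets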 (primary screen). Cell system: Chinese hamster CHO-K1 ovary cells with stable secreted eGFP expression. Reagents: single siRNA against mouse genes, 0.8 pmol siRNA per well (2 µl of 400 nM stock). Time to read-out: 3 days. Measurement: 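Per-well intracellular GFP measured by laser scanning cytometry, plus viability from ATP luminescence, each relative to plate median of non-targeting control wells, in %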. Reading the numbers: GFP, % of control: higher = more GFP per well, higher productivity; viability (ATP), % of control: higher = more viable cells (more ATP). Active means: 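Called active when intracellular GFP, relative to negative control, is at or above 120%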.
Shown is a random part of about 50,000 reagents tested. About 4,000 of them (8%) were called active. 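Mouse siRNA library applied to hamster cells; one well for each siRNA.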 A number with no mark means an inactive call. Reagents against one gene are numbered here. Reagent sequences are not shown.

Aqp3 #1 — GFP, % of control = 100; viability (ATP), % of control = 102
Aqp3 #2 — GFP, % of control = 64.2; viability (ATP), % of control = 80
Aqp3 #3 — GFP, % of control = 60.4; viability (ATP), % of control = 81.8
Or5d47 #1 — GFP, % of control = 62.7; viability (ATP), % of control = 54.3
Or5d47 #2 — GFP, % of control = 119; viability (ATP), % of control = 91.9
Or5d47 #3 — GFP, % of control = 53; viability (ATP), % of control = 84
Eri2 #1 — GFP, % of control = 72.4; viability (ATP), % of control = 58
Eri2 #2 — GFP, % of control = 98.5; viability (ATP), % of control = 84
Eri2 #3 — GFP, % of control = 77.2; viability (ATP), % of control = 66.2
Or5t16 #1 — GFP, % of control = 91; viability (ATP), % of control = 75.3
Or5t16 #2 — GFP, % of control = 73.8; viability (ATP), % of control = 79.5
Or5t16 #3 — GFP, % of control = 68.4; viability (ATP), % of control = 94.5
Wdr17 #1 — GFP, % of control = 81.3; viability (ATP), % of control = 60.8
Wdr17 #2 — GFP, % of control = 80.7; viability (ATP), % of control = 76.9
Wdr17 #3 — GFP, % of control = 53.2; viability (ATP), % of control = 71
Dguok — GFP, % of control = 61.8; viability (ATP), % of control = 70.3

2 neighbouring records already listed, for reference:
Wdr17 #1 — GFP, % of control = 81.3; viability (ATP), % of control = 60.8
Wdr17 #2 — GFP, % of control = 80.7; viability (ATP), % of control = 76.9
